# Test results reported in PubChem BioAssay (NCATS).
# “And” between values parts separate entries of the source, which are not always exact repeats. Identical values can stand only once. Inconclusive means that the source gave no clear call. Such entries were picked first, then a sample of the others. Where the call is inconclusive, the potency comes from a doubtful curve fit. The source made the active and inactive calls. The call rests on the fitted dose curve; in most records, active means well fitted cell-killing curve with a large enough effect; inconclusive means small, poorly fitted or top-dose-only effect, or effect the other way; inactive means flat fitted curve, though single readings scatter.
# Assay: Identifying Small Molecule Inhibitors of Pancreatic Cancer Stem Cells (SN12C, Spheroid) (AID 1259360)
# Details: Potency: SN12C spheroid viability; series mostly up to 46.1 µM
# In short: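 Cytotoxicity read by CellTiter-Glo luminescence after 48 h compound exposure at 37C; percent activity scaled between DMSO-treated cells and cell-free wells. Spheroid formats used cells pre-formed 14 days in stem cell media on hydrogel.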
# Potency means the concentration at half of the fitted maximal effect.
row,Structure (SMILES),Potency
1,O=C(NC1CCNCC1)c1[nH]ncc1NC(=O)c1c(Cl)cccc1Cl,"inconclusive: 1.05 µM [cytotoxic, full curve] and active: 1.05 µM"
2,Cc1ccc(C(=O)Nc2ccc(CN3CCN(C)CC3)c(C(F)(F)F)c2)cc1C#Cc1cnc2cccnn12,active: 23.5 µM
3,Cc1csc(-c2nnc(Nc3ccc(Oc4ncccc4-c4ccnc(N)n4)cc3)c3ccccc23)c1,"inconclusive: 1.32 µM [rising, partial curve, poor fit]"
4,CCn1c(-c2nonc2N)nc2c(C#CC(C)(C)O)ncc(OC[C@H]3CCCNC3)c21,"inconclusive: 26.4 µM [cytotoxic, partial curve, poor fit]"
5,CC(=O)c1c(C)c2cnc(Nc3ccc(N4CCNCC4)cn3)nc2n(C2CCCC2)c1=O,"inconclusive: 26.4 µM [cytotoxic, single point]"
6,Cc1ccc(NC(=O)c2cccc(C(C)(C)C#N)c2)cc1Nc1ccc2ncn(C)c(=O)c2c1,"inconclusive: 16.6 µM [cytotoxic, partial curve, poor fit]"
7,O=c1[nH]c(-c2ccc(C(F)(F)F)cc2)nc2c1CSCC2,inactive
8,O=C(O)CCc1ccc(NCc2cccc(Oc3ccccc3)c2)cc1,inactive
9,CC1(O)CC(c2nc(-c3ccc4ccc(-c5ccccc5)nc4c3)c3c(N)nccn23)C1 (configuration not stated),"inconclusive: 18.7 µM [cytotoxic, partial curve, poor fit]"
10,Cc1ccc(-c2ncn(-c3ccc(Nc4nccc(-c5cccc(N6CCOCC6)c5)n4)cc3)n2)cn1,active: 0.059 µM
11,COc1ccc2c(c1)CC[C@@H](CN(C)CC(=O)O)[C@H]2c1ccccc1,inactive
12,COc1cc(OC2CCN(C)CC2)ccc1Nc1ncc2c(n1)n(C1CCCC1)c(=O)n2C,active: 20.9 µM
